This is an account of results in article PMC7587437.

Protein sequences, listed by entry. Tags and fused reporters are not part of them.
UniProt P0A6X3: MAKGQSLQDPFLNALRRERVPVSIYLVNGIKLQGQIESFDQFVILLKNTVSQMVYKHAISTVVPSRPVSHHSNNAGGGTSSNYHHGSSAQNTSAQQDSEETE

Results are given in words; binding and its absence hold for the method and conditions named. Binding seen in cells or lysates may run through a third protein. Some entries that bind do so weakly or less than the wild type. For part of these data: Sequences can lack the tags named with a protein.

In experiment [1] the target is T1, His6-RNase R (Escherichia coli) (UniProt P21499).
T1 sequence: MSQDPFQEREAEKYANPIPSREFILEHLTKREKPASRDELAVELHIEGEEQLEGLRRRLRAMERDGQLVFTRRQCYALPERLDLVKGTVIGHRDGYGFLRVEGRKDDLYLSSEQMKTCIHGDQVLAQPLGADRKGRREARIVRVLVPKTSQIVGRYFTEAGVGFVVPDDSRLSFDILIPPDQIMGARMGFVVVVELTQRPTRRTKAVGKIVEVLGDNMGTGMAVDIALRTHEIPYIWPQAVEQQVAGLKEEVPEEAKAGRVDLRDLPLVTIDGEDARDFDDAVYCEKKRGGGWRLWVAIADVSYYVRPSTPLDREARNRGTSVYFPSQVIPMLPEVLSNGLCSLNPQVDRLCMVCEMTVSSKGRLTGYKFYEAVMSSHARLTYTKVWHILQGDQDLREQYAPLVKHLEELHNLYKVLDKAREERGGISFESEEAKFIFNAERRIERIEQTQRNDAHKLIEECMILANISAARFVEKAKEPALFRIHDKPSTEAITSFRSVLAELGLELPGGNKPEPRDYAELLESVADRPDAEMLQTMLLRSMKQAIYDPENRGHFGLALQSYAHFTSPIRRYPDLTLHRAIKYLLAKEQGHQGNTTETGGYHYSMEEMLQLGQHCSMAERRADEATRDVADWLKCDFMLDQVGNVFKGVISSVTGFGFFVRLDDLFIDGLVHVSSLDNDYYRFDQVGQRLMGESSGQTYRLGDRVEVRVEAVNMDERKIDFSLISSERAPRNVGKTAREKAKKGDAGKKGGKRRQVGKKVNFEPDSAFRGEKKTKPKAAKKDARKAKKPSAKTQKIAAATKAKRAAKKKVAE
The experiment in a line: pull-down; purified His6-RNase R immobilised on Ni-NTA beads, incubated with wild-type cell lysate overnight at 4°C; Western blot with anti-Hfq antibody; only the target purified.

Experiment [2] deals with T2, native RNase R (Escherichia coli (endogenous in E. coli K-12 MG1693)) (UniProt P21499).
T2 sequence: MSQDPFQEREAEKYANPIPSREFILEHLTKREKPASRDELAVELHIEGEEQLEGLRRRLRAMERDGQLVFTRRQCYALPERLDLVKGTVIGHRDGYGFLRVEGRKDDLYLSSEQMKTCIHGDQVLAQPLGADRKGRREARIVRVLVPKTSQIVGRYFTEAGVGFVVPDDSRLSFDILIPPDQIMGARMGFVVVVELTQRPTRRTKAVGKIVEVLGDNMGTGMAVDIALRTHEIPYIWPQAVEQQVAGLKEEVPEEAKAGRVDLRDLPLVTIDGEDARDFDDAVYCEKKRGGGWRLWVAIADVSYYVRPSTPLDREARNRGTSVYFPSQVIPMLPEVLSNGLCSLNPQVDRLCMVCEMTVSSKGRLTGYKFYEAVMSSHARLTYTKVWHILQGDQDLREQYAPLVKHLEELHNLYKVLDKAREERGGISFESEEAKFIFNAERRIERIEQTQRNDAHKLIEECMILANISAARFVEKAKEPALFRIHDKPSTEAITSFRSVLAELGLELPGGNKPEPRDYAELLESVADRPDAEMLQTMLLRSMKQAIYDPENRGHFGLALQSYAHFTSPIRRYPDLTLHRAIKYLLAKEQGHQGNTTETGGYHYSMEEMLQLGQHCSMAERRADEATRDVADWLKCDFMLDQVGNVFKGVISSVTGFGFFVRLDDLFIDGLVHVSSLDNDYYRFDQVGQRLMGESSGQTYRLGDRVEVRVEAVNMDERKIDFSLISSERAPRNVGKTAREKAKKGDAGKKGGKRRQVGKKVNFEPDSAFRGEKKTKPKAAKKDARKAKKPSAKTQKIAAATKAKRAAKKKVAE
Briefly: co-IP; polyclonal anti-RNase R antibody on protein A/G agarose beads (Pierce Crosslink IP kit), E. coli cell lysates (wild type, Δhfq, Δrnr); Hfq detected by Western blot.

The target of experiment [3] is His6-Hfq (Escherichia coli) (UniProt P0A6X3). The experiment in a line: pull-down; purified His6-Hfq immobilised on Ni-NTA beads, incubated with wild-type cell lysate overnight at 4°C; eluted with imidazole; Western blot with anti-RNase R antibody; only the target purified. In general terms: Immunoblotting shows a protein as a band on a membrane.

As to native Hfq (from UniProt P0A6X3 1-102), the binding result in experiment [1] and in experiment [2] was “binds” throughout.

B1: native RNase R (enzyme, UniProt P21499 1-813)
chain: MSQDPFQEREAEKYANPIPSREFILEHLTKREKPASRDELAVELHIEGEEQLEGLRRRLRAMERDGQLVFTRRQCYALPERLDLVKGTVIGHRDGYGFLRVEGRKDDLYLSSEQMKTCIHGDQVLAQPLGADRKGRREARIVRVLVPKTSQIVGRYFTEAGVGFVVPDDSRLSFDILIPPDQIMGARMGFVVVVELTQRPTRRTKAVGKIVEVLGDNMGTGMAVDIALRTHEIPYIWPQAVEQQVAGLKEEVPEEAKAGRVDLRDLPLVTIDGEDARDFDDAVYCEKKRGGGWRLWVAIADVSYYVRPSTPLDREARNRGTSVYFPSQVIPMLPEVLSNGLCSLNPQVDRLCMVCEMTVSSKGRLTGYKFYEAVMSSHARLTYTKVWHILQGDQDLREQYAPLVKHLEELHNLYKVLDKAREERGGISFESEEAKFIFNAERRIERIEQTQRNDAHKLIEECMILANISAARFVEKAKEPALFRIHDKPSTEAITSFRSVLAELGLELPGGNKPEPRDYAELLESVADRPDAEMLQTMLLRSMKQAIYDPENRGHFGLALQSYAHFTSPIRRYPDLTLHRAIKYLLAKEQGHQGNTTETGGYHYSMEEMLQLGQHCSMAERRADEATRDVADWLKCDFMLDQVGNVFKGVISSVTGFGFFVRLDDLFIDGLVHVSSLDNDYYRFDQVGQRLMGESSGQTYRLGDRVEVRVEAVNMDERKIDFSLISSERAPRNVGKTAREKAKKGDAGKKGGKRRQVGKKVNFEPDSAFRGEKKTKPKAAKKDARKAKKPSAKTQKIAAATKAKRAAKKKVAE
As to B1, the binding entry in experiment [3] is listed as “binds”.
